Experimental data reported in publication PMC7227447.
Results are given in words; binding and its absence hold for the method and conditions named. Binding seen in cells or lysates may run through a third protein. Some binding calls cover weakened binding; strength is not graded here.

Amino acid sequences for entries named in this document (tags omitted).
UniProt P23242: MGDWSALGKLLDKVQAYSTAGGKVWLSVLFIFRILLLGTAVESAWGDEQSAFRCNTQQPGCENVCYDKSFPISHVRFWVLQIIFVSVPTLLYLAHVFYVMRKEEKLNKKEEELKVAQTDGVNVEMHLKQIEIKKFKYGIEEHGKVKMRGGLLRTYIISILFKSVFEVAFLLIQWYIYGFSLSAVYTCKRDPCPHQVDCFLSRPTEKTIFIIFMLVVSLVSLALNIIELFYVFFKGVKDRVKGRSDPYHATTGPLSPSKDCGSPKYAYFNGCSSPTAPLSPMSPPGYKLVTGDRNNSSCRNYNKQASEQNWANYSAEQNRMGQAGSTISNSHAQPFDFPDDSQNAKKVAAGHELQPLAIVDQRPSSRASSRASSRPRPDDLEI

Biological target: T1, nuclear factor erythroid 2-related factor 2 (mouse (endogenous in primary astrocytes)) (UniProt Q60795)
T1 sequence: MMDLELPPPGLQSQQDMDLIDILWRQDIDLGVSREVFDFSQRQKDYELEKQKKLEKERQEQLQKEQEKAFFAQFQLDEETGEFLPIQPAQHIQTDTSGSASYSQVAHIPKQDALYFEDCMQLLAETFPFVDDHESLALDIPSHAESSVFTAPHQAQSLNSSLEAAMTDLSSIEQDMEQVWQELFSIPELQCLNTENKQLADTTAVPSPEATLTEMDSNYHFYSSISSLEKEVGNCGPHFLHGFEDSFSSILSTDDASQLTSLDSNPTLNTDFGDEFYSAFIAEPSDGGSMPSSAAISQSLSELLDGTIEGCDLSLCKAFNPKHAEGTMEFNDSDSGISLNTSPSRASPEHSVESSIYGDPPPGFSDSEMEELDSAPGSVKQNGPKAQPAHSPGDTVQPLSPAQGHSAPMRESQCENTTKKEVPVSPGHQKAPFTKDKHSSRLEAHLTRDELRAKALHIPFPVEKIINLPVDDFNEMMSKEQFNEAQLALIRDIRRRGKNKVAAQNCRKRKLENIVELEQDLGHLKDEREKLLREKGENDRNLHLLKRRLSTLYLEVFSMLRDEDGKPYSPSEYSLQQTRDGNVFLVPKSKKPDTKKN
Experiment: co-IP; lysates (1 mg protein) of primary mouse astrocytes treated according to experiment designs (30 uM hemin, with or without BM-MSCs coculture); precipitated with 1 ug rabbit anti-Nrf2 antibody or normal rabbit IgG for 12 h at 4 C, protein A/G agarose; Western blot with mouse anti-Cx43 monoclonal antibody

binding: binds
Substance: connexin 43 (from UniProt P23242 1-382)
